In patent publication US20150045506 (published 2015):

Assay: general procedure: peptide synthesis; polystyrene resin with chlorotrityl linker groups (e.g. 2-chlorotrityl chloride); ChemMatrix trityl-alcohol; PyBOP/DIEA

Substance | step yield (coupling step) [%] | step yield (late stage modification step) [%]
Ac-GFGQGFGG-CHHLEPGG-CILKEPVHGA-NH2 | 36 | –
Ac-GFGQGFGG-SeEA | – | 24
Ac-GFGQGFGGCILKEPVHGA-NH2 | 54 | –
H-ILKEPVHGA-SeEA | – | 62
H-IRNCIIGKGRSYKGTVSITKSGIK-SeEA | – | 38
